Results deposited as PubChem BioAssay AID1224831 (NIAID, 2016).

Test: 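Genes that support or restrain LPS-induced TNF-alpha reporter activity in macrophage-like cells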 (follow-up of hits)
Cell system: human THP-1 B5 monocytic leukaemia cells carrying a TNF promoter luciferase reporter, made macrophage-like with PMA
Reagents: single siRNA against human genes, 50 nM
Timing: about 68 h of knock-down, then 4 h LPS
Treatment: LPS (Salmonella minnesota, TLR-grade) at 10 ng/ml for 4 h; PMA 5 ng/ml present during knock-down
Measurement: 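Firefly to renilla luciferase ratio of a TNF promoter reporter after 4 h LPS, scaled to plate median, turned into robust z-score, averaged over replicates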
Direction: TNF reporter z-score: higher = stronger LPS-induced TNF reporter signal; z-score, median over gene's siRNAs: higher = stronger TNF reporter signal across the gene's siRNAs
Rule for the call: 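Two-sided call: reduced or raised TNF reporter signal counts as active once mean z reaches about -1 or below, or about 1.5 or above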
Meaning of the calls: active = changed TNF reporter (either direction); inactive = little change
Here is an unselected part of about 3,500 reagents. 731 of all reagents (21%) were called active. 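Active means either lowered or raised reporter signal; the gene-median score did not drive the per-siRNA calls.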 Reagents against one gene are numbered here. No sequences are given here.

Gene | reagent no. | TNF reporter z-score, replicate mean | z-score, median over gene's siRNAs | Call
POMP (GeneID 51371) | 1 | -2.77 | -1.62 | active
POMP (GeneID 51371) | 2 | -1.75 | -1.62 | active
POMP (GeneID 51371) | 3 | -2.1 | -1.62 | active
POMP (GeneID 51371) | 4 | -1.5 | -1.62 | active
POMP (GeneID 51371) | 5 | -0.39 | -1.62 | inactive
POMP (GeneID 51371) | 6 | 0.64 | -1.62 | inactive
PRRT1 (GeneID 80863) | 1 | -0.9 | -0.435 | inactive
PRRT1 (GeneID 80863) | 2 | -1.02 | -0.435 | active
PRRT1 (GeneID 80863) | 3 | -0.09 | -0.435 | inactive
PRRT1 (GeneID 80863) | 4 | -0.54 | -0.435 | inactive
PRRT1 (GeneID 80863) | 5 | 1.55 | -0.435 | active
PRRT1 (GeneID 80863) | 6 | -0.33 | -0.435 | inactive
EIF4G1 (GeneID 1981) | 1 | -1.67 | -0.82 | active
EIF4G1 (GeneID 1981) | 2 | -2.55 | -0.82 | active
EIF4G1 (GeneID 1981) | 3 | -0.62 | -0.82 | inactive
EIF4G1 (GeneID 1981) | 4 | -0.89 | -0.82 | inactive
EIF4G1 (GeneID 1981) | 5 | 1.14 | -0.82 | inactive
EIF4G1 (GeneID 1981) | 6 | -0.75 | -0.82 | inactive
SLC25A44 (GeneID 9673) | 1 | 1.41 | 1.04 | inactive
SLC25A44 (GeneID 9673) | 2 | 1.09 | 1.04 | inactive
SLC25A44 (GeneID 9673) | 3 | 1 | 1.04 | inactive
SLC25A44 (GeneID 9673) | 4 | -0.79 | 1.04 | inactive
SLC25A44 (GeneID 9673) | 5 | -0.34 | 1.04 | inactive
SLC25A44 (GeneID 9673) | 6 | 1.48 | 1.04 | inactive
EAF1 (GeneID 85403) | 1 | -1.25 | -0.53 | active
EAF1 (GeneID 85403) | 2 | -0.85 | -0.53 | inactive
EAF1 (GeneID 85403) | 3 | -0.25 | -0.53 | inactive
EAF1 (GeneID 85403) | 4 | 0.06 | -0.53 | inactive
EAF1 (GeneID 85403) | 5 | -0.64 | -0.53 | inactive
EAF1 (GeneID 85403) | 6 | -0.42 | -0.53 | inactive
LECT2 (GeneID 3950) | 1 | -0.07 | 0.1 | inactive
LECT2 (GeneID 3950) | 2 | -0.62 | 0.1 | inactive
LECT2 (GeneID 3950) | 3 | 1.18 | 0.1 | inactive
LECT2 (GeneID 3950) | 4 | 0.96 | 0.1 | inactive
LECT2 (GeneID 3950) | 5 | -1.18 | 0.1 | active
LECT2 (GeneID 3950) | 6 | 0.27 | 0.1 | inactive
GNAT2 (GeneID 2780) | 1 | 0.1 | 0.145 | inactive
GNAT2 (GeneID 2780) | 2 | 0.3 | 0.145 | inactive
GNAT2 (GeneID 2780) | 3 | -0.19 | 0.145 | inactive
GNAT2 (GeneID 2780) | 4 | 0.19 | 0.145 | inactive
GNAT2 (GeneID 2780) | 5 | 0.2 | 0.145 | inactive
GNAT2 (GeneID 2780) | 6 | -0.17 | 0.145 | inactive
OAZ3 (GeneID 51686) | 1 | 0.68 | 0.505 | inactive
OAZ3 (GeneID 51686) | 2 | -0.18 | 0.505 | inactive
OAZ3 (GeneID 51686) | 3 | 0.14 | 0.505 | inactive
OAZ3 (GeneID 51686) | 4 | 0.33 | 0.505 | inactive
OAZ3 (GeneID 51686) | 5 | 3.05 | 0.505 | active
OAZ3 (GeneID 51686) | 6 | 0.69 | 0.505 | inactive
GPX4 (GeneID 2879) | 1 | 0.64 | -0.19 | inactive
GPX4 (GeneID 2879) | 2 | -0.36 | -0.19 | inactive
GPX4 (GeneID 2879) | 3 | -0.5 | -0.19 | inactive
GPX4 (GeneID 2879) | 4 | 0.09 | -0.19 | inactive
GPX4 (GeneID 2879) | 5 | -0.37 | -0.19 | inactive
GPX4 (GeneID 2879) | 6 | -0.02 | -0.19 | inactive
DIPK1B (GeneID 138311) | 1 | -0.43 | 0.09 | inactive
DIPK1B (GeneID 138311) | 2 | -0.09 | 0.09 | inactive
DIPK1B (GeneID 138311) | 3 | 0.64 | 0.09 | inactive
DIPK1B (GeneID 138311) | 4 | 0.27 | 0.09 | inactive
DIPK1B (GeneID 138311) | 5 | 3.82 | 0.09 | active
DIPK1B (GeneID 138311) | 6 | -0.29 | 0.09 | inactive
IGDCC3 (GeneID 9543) | 1 | 0.66 | -0.21 | inactive
IGDCC3 (GeneID 9543) | 2 | -0.88 | -0.21 | inactive
IGDCC3 (GeneID 9543) | 3 | -1.13 | -0.21 | active
IGDCC3 (GeneID 9543) | 4 | -0.32 | -0.21 | inactive
IGDCC3 (GeneID 9543) | 5 | 1.59 | -0.21 | active
IGDCC3 (GeneID 9543) | 6 | -0.1 | -0.21 | inactive

Entries listed above with an active call (14):
Gene | reagent no. | TNF reporter z-score, replicate mean | z-score, median over gene's siRNAs | Call
POMP (GeneID 51371) | 1 | -2.77 | -1.62 | active
POMP (GeneID 51371) | 2 | -1.75 | -1.62 | active
POMP (GeneID 51371) | 3 | -2.1 | -1.62 | active
POMP (GeneID 51371) | 4 | -1.5 | -1.62 | active
PRRT1 (GeneID 80863) | 2 | -1.02 | -0.435 | active
PRRT1 (GeneID 80863) | 5 | 1.55 | -0.435 | active
EIF4G1 (GeneID 1981) | 1 | -1.67 | -0.82 | active
EIF4G1 (GeneID 1981) | 2 | -2.55 | -0.82 | active
EAF1 (GeneID 85403) | 1 | -1.25 | -0.53 | active
LECT2 (GeneID 3950) | 5 | -1.18 | 0.1 | active
OAZ3 (GeneID 51686) | 5 | 3.05 | 0.505 | active
DIPK1B (GeneID 138311) | 5 | 3.82 | 0.09 | active
IGDCC3 (GeneID 9543) | 3 | -1.13 | -0.21 | active
IGDCC3 (GeneID 9543) | 5 | 1.59 | -0.21 | active

The results go on:
Gene | reagent no. | TNF reporter z-score, replicate mean | z-score, median over gene's siRNAs | Call
BCL6 (GeneID 604) | 1 | -1.21 | -1.4 | active
BCL6 (GeneID 604) | 2 | -2.01 | -1.4 | active
BCL6 (GeneID 604) | 3 | -2.72 | -1.4 | active
BCL6 (GeneID 604) | 4 | -1.37 | -1.4 | active
BCL6 (GeneID 604) | 5 | -1.3 | -1.4 | active
BCL6 (GeneID 604) | 6 | -1.43 | -1.4 | active
WDR5B (GeneID 54554) | 1 | 0.89 | 1.55 | inactive
WDR5B (GeneID 54554) | 2 | 1.38 | 1.55 | inactive
WDR5B (GeneID 54554) | 3 | 2.12 | 1.55 | active
WDR5B (GeneID 54554) | 4 | 1.73 | 1.55 | active
WDR5B (GeneID 54554) | 5 | 0.92 | 1.55 | inactive
WDR5B (GeneID 54554) | 6 | 2.15 | 1.55 | active
FEZ1 (GeneID 9638) | 1 | -0.19 | 0.21 | inactive
FEZ1 (GeneID 9638) | 2 | 0.08 | 0.21 | inactive
FEZ1 (GeneID 9638) | 3 | -0.35 | 0.21 | inactive
FEZ1 (GeneID 9638) | 4 | 0.34 | 0.21 | inactive
FEZ1 (GeneID 9638) | 5 | 0.53 | 0.21 | inactive
FEZ1 (GeneID 9638) | 6 | 0.57 | 0.21 | inactive
ROR1 (GeneID 4919) | 1 | -0.72 | -0.195 | inactive
ROR1 (GeneID 4919) | 2 | -0.19 | -0.195 | inactive
ROR1 (GeneID 4919) | 3 | 0.86 | -0.195 | inactive
ROR1 (GeneID 4919) | 4 | -0.2 | -0.195 | inactive
ROR1 (GeneID 4919) | 5 | -0.32 | -0.195 | inactive
ROR1 (GeneID 4919) | 6 | 0.4 | -0.195 | inactive
DGKK (GeneID 139189) | 1 | 0.25 | 0.33 | inactive
DGKK (GeneID 139189) | 2 | -0.06 | 0.33 | inactive
DGKK (GeneID 139189) | 3 | 0.68 | 0.33 | inactive
DGKK (GeneID 139189) | 4 | -0.1 | 0.33 | inactive
DGKK (GeneID 139189) | 5 | 0.41 | 0.33 | inactive
DGKK (GeneID 139189) | 6 | 0.64 | 0.33 | inactive
CYP27A1 (GeneID 1593) | 1 | -2.76 | -1.98 | active
CYP27A1 (GeneID 1593) | 2 | -2.32 | -1.98 | active
CYP27A1 (GeneID 1593) | 3 | -2.7 | -1.98 | active
CYP27A1 (GeneID 1593) | 4 | -1.5 | -1.98 | active
CYP27A1 (GeneID 1593) | 5 | -1.63 | -1.98 | active
CYP27A1 (GeneID 1593) | 6 | -1.01 | -1.98 | active
NDUFS8 (GeneID 4728) | 1 | -0.38 | 0.04 | inactive
NDUFS8 (GeneID 4728) | 2 | 0.13 | 0.04 | inactive
NDUFS8 (GeneID 4728) | 3 | -0.81 | 0.04 | inactive
NDUFS8 (GeneID 4728) | 4 | -0.05 | 0.04 | inactive
NDUFS8 (GeneID 4728) | 5 | 2.68 | 0.04 | active
NDUFS8 (GeneID 4728) | 6 | 1.11 | 0.04 | inactive
